# Measured values published in PubChem BioAssay AID652054 (National Center for Advancing Translational Sciences (NCATS), 2013).
# Chains of the proteins cited; added tags and fusions are not shown.
# UniProt P35462, whole entry, looked up: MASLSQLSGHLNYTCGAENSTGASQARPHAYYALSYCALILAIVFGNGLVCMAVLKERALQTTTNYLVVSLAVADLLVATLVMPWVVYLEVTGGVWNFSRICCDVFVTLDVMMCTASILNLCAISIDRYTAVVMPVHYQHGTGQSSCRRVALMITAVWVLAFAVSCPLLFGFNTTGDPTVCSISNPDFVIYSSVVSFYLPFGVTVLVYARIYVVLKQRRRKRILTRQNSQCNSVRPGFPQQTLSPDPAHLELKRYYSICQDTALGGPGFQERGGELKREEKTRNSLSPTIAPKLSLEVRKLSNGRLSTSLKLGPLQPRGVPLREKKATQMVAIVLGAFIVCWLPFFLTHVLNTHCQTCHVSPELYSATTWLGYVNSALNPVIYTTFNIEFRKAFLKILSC
# About 9,100 (2.5%) of roughly 360,000 compounds were called active. Inconclusive results, whose numbers are uncertain, are shown with a selection of clear calls. No stated cut-off is given here; in the data, active means max response below about -50%; inconclusive means no clear call, values can overlap the other calls; inactive means above that.
# Molecular target: D(3) dopamine receptor (Homo sapiens) (UniProt P35462)
# Assay: qHTS of D3 Dopamine Receptor Antagonist: qHTS
# Conditions: D3R cells, DiscoveRx beta-arrestin luminescence, antagonist mode; active compounds read low
# Procedure, shortened: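 Cells expressing the human receptor were seeded at 1500 cells/well, incubated overnight at 37 degrees C in 5% CO2, then exposed to library compounds with dopamine controls for 90 minutes at 37 degrees C before luminescent detection.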
# On the % scale 0 is the no-effect control and ±100 the full control effect.
row,SMILES,"max response, negative = inhibition"
1,Cc1nn(C)c(C(=O)NNC(=S)Nc2ccc(F)cc2)c1[N+](=O)[O-],inconclusive: -36.9%
2,COc1cc2c(cc1OC)C(C)N(C(=O)c1ccc(C)o1)CC2 (configuration not stated),inactive: 2.84%
3,CN(C)CCCN(C(=O)c1ccc(S(=O)(=O)N2CCc3ccccc3C2)cc1)c1nc2ccc(F)cc2s1,inconclusive: -43.9%
4,C/C(=N\N=C(N)N)c1ccc(Cl)cc1Cl,inconclusive: -46.4%
5,CC1CCCC(C)N1CCCNC(=O)Cn1ncc2c([nH]c3ccccc32)c1=O (configuration not stated),inactive: -0.732%
6,C=C[C@H]1[C@H](O[C@@H]2O[C@H](CO)[C@@H](O)[C@H](O)[C@H]2O)OC=C2C(=O)OCC[C@]21O,inconclusive: -33.7%
7,COc1ccc(NC(=O)CN(C)C(=O)c2cc(C)oc2C)cc1,inconclusive: -44.7%
8,COc1ccc(CCC(=O)N2c3ccccc3N=C(c3ccc(C(F)(F)F)cc3)C2C(=O)NC2CCCC2)cc1 (configuration not stated),inconclusive: -32.7%
9,Cc1ccc(C)c(NC(=O)C(CC(=O)O)C2CCCO2)c1 (configuration not stated),inactive: -2.06%
10,Cc1[nH]c(C)c(S(=O)(=O)Nc2cccc(Cl)c2C)c1C(=O)N1CCCCC1,active: -51.2%
11,Cc1ccc(CN2CCN(/N=C/c3cc([N+](=O)[O-])ccc3Cl)CC2)cc1,active: -60.5%
12,CCC(NS(=O)(=O)c1ccc(C)cc1)C(=O)N1CCOCCOCCOCCOCC1 (configuration not stated),inactive: 7.82%
13,COc1ccc(S(=O)(=O)Nc2ccccc2Cl)cc1NC(C)=O,inconclusive: -34.2%
14,COc1cccc(-c2[nH]nc3c2C(c2ccsc2)C(C#N)=C(N)O3)c1 (configuration not stated),inconclusive: -42.9%
15,NC(=O)C1CC2(C1)CC(C(N)=O)C2 (configuration not stated),inconclusive: -32%
16,CC(C)Cn1c(-c2nn(C)cc2Cl)n[nH]c1=S,inconclusive: -30.7%
17,CCN1C(=O)[C@H]2[C@@H](c3ccc(C)cc3)N3C(=O)N(c4cccc(Cl)c4)C(=O)[C@@]3(Cc3ccc(Cl)cc3)[C@H]2C1=O,inconclusive: -34.9%
18,CCOC(=O)C1CCC(CN(Cc2ccccc2)S(=O)(=O)c2ccc([N+](=O)[O-])cc2)CC1 (configuration not stated),inactive: -14.3%
19,CC(C)N(C(=O)[C@H]1C[C@H](CC(=O)NCCN2CCOCC2)C(=O)N2CCc3c([nH]c4ccc(Cl)cc34)[C@]12C)C(C)C,active: -52.6%
20,OCCC1CN(CCCc2ccccc2)CCN1Cc1ccc(F)cc1 (configuration not stated),active: -55.5%
21,Cn1cc(/C=N/NC(=O)c2cc3cc(Br)ccc3o2)c2ccccc21,inconclusive: -33.7%
22,COc1cc(CNC[C@H]2O[C@@H](n3cnc(C(N)=O)n3)[C@H](O)[C@@H]2O)ccc1OCc1cccc(Cl)c1,inconclusive: -32.2%
24,COc1ccc(-[n+]2c(C)cc(/C=C3\Sc4ccccc4N3C)cc2C)cc1,inactive: -21.8%
25,COc1cc2c(cc1NC(=O)Nc1ccccc1)oc1ccccc12,inconclusive: -30.8%
26,COCCNC(=S)N/N=C(\C)c1ccc(OC)cc1,inactive: 8.5%

# Entries shown so far that contain nitrogen in an aromatic ring, in the order listed:
row,SMILES,"max response, negative = inhibition"
1,Cc1nn(C)c(C(=O)NNC(=S)Nc2ccc(F)cc2)c1[N+](=O)[O-],inconclusive: -36.9%
3,CN(C)CCCN(C(=O)c1ccc(S(=O)(=O)N2CCc3ccccc3C2)cc1)c1nc2ccc(F)cc2s1,inconclusive: -43.9%
5,CC1CCCC(C)N1CCCNC(=O)Cn1ncc2c([nH]c3ccccc32)c1=O (configuration not stated),inactive: -0.732%
10,Cc1[nH]c(C)c(S(=O)(=O)Nc2cccc(Cl)c2C)c1C(=O)N1CCCCC1,active: -51.2%
14,COc1cccc(-c2[nH]nc3c2C(c2ccsc2)C(C#N)=C(N)O3)c1 (configuration not stated),inconclusive: -42.9%
16,CC(C)Cn1c(-c2nn(C)cc2Cl)n[nH]c1=S,inconclusive: -30.7%
19,CC(C)N(C(=O)[C@H]1C[C@H](CC(=O)NCCN2CCOCC2)C(=O)N2CCc3c([nH]c4ccc(Cl)cc34)[C@]12C)C(C)C,active: -52.6%
21,Cn1cc(/C=N/NC(=O)c2cc3cc(Br)ccc3o2)c2ccccc21,inconclusive: -33.7%
22,COc1cc(CNC[C@H]2O[C@@H](n3cnc(C(N)=O)n3)[C@H](O)[C@@H]2O)ccc1OCc1cccc(Cl)c1,inconclusive: -32.2%
24,COc1ccc(-[n+]2c(C)cc(/C=C3\Sc4ccccc4N3C)cc2C)cc1,inactive: -21.8%

# Later entries

row,SMILES,"max response, negative = inhibition"
1,CCN1CCN(C(c2ccc(OC)cc2)C(O)C(=O)c2c[nH]c3ccccc23)CC1 (configuration not stated),inconclusive: -46.4%
2,COc1ccc(C(c2sc3nc(C)nn3c2O)N2CCN(Cc3ccccc3)CC2)cc1OC (configuration not stated),inactive: 5.62%
3,OC(c1cccc(Cl)c1)c1nc(-c2ccoc2)cs1 (configuration not stated),inactive: -22.1%
4,CCN(CC)C(=O)NC1CC2CCCC(C1)N2Cc1ccccc1 (configuration not stated),active: -65.3%
5,N#Cc1cccc(Cn2nnc(-c3ccccc3)n2)c1,inconclusive: -47.6%
6,O=C(c1ccco1)N1CCN(C2CCCC2)CC1,active: -74.2%
7,O=C(NC(=S)Nc1nc(-c2cccc([N+](=O)[O-])c2)cs1)c1ccccc1Cl,inactive: 0%
8,Cn1c(NC(=O)c2cc(-c3ccc4c(c3)OCO4)nc3ccccc23)cc(=O)n(C)c1=O,inconclusive: -34.5%
9,Cc1cccc(C(=O)Nc2ccc(Oc3cnccn3)cc2)c1,inconclusive: -31.1%
10,CCOc1ccccc1NC(=O)CCC(=O)Nc1ccc2nc(N3CCN(C)CC3)cc(C)c2c1,inconclusive: -35.8%
11,CCOC(=O)N1CCN(CC(O)COCc2ccccc2)CC1 (configuration not stated),inactive: -24.5%
12,C#Cc1ccc(CN2CCCC(C(=O)Nc3ccccc3Oc3cccnc3)C2)cc1 (configuration not stated),inactive: -21%
13,COc1cccc(C2/C(=C(/O)c3cnn(-c4ccccc4)c3C)C(=O)C(=O)N2CCN(C)C)c1 (configuration not stated),inconclusive: -41.7%
14,CCOC(=O)C1CCCN(C/C=C/c2ccccc2[N+](=O)[O-])C1 (configuration not stated),active: -64%
15,Cc1ccc(S(=O)(=O)Nc2cc(Cl)ccc2-n2cncn2)cc1,inactive: -3.7%
16,Nc1ncnc2c1ncn2[C@@H]1O[C@H](CNCc2cn(CC(=O)NC3CC3)c3ccccc23)[C@@H](O)[C@H]1O,inconclusive: -32.6%
17,CC(C(=O)Nc1cccc([N+](=O)[O-])c1)N1CCN(C/C=C/c2ccccc2)CC1 (configuration not stated),inconclusive: -46%
18,Cc1ccc(C2=N/C(=C/N3CCOCC3)C(=O)O2)cc1,inconclusive: -40.7%
19,Cc1ccccc1-c1nc(CN2CCC(C(=O)NCCCN3CC(C)CC(C)C3)CC2)c(C)o1 (configuration not stated),inconclusive: -44.3%
20,CC(C)COC(=O)N1CCCCC1c1cc(C(=O)N2CCOCC2)no1 (configuration not stated),inactive: 10.4%
21,O=C(Cn1cncn1)N/N=C/c1cc([N+](=O)[O-])ccc1O,inconclusive: -37.8%
23,COc1ccc(Cl)cc1C=CC=Nc1ccccc1O,inconclusive: -37.3%
24,O=C(c1nnsc1S(=O)c1ccc(Cl)cc1)N1CCOCC1 (configuration not stated),active: -50.7%
25,CC(=O)c1ccc(C(=O)Nc2ccc3c(c2)C(=O)NC3=O)cc1,inconclusive: -47.3%
26,CC1(C)O[C@H]2OC([C@H](O)CON3C(=O)c4ccccc4C3=O)[C@H](O)[C@H]2O1 (some centres not stated),inconclusive: -31.4%
